Assay results from PubChem BioAssay AID1471 (National Center for Advancing Translational Sciences (NCATS), 2008).
Values joined by “and” are separate entries in the source; they are usually repeats but may differ in a detail not shown here. Equal entries are not always repeated. Hit rate of the full screen: of about 230,000 compounds, about 310 (0.13%) were called active. Not shown: some 2% with an inconclusive outcome. The call rests on the fitted dose curve; in most records, active means well fitted activation curve with a large enough effect; inconclusive means small, poorly fitted or top-dose-only effect; inactive means no such curve, though single readings can be large or run the other way. The list shows a part of the results, in another mix than the full data. Entries without a call were filed so in the source. Some compounds were tested as several samples or in several runs, with calls that do not always agree. Non-standard residues stand in square brackets, D forms with d. Residues, ends and D or L forms follow the SMILES beside them. Nle = CCCC[C@H](N)C(=O)O

experiment: qHTS Multiplex Assay to Identify Dual Action Probes in a Cell Model of Huntington: Cytoprotection (ATP); settings: PC12 HTT-Q103 induced, ATP luminescence, 40 h; cytoprotection (ATP increase): at 56.4 µM (top of the series) unless noted; further: nearly all actives have a fitted effect of over 45% in size;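 on cytoprotection (ATP increase): toxic huntingtin expression switched on by the ecdysone agonist tebufenozide; % of control where 0% means no effect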
Procedure, shortened: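 PC12 cells stably carrying ecdysone-inducible Htt exon 1 (Q103)–GFP were induced with 100 nM tebufenozide (final) alongside library compounds in a dose series. Cytoprotection was scored as retained ATP by ATPlite luminescence.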
Potency means the concentration at half of the fitted maximal effect.

Row | Structure (SMILES) | cytoprotection (ATP increase) | Potency
1 | CC(=O)/C(=N/Nc1ccccc1[N+](=O)[O-])N1CCCc2ccccc21 | 252% [at 10 µM] | –
2 | Cc1cc(C)cc(NC(=O)OCCN2CCN(Cc3ccccc3)CCC2=O)c1 | -198% | –
3 | C=C(C)C(=O)/C=C/c1ccc(C(F)(F)F)cc1 | 28.7% | –
4 | COCCN1C(=O)N[C@H](c2cccc(C(F)(F)F)c2)C(C(=O)OC)=C1C | 26.9% | –
5 | COC(=O)C1=C(C)N=c2s/c(=C3\C(=O)Nc4ccccc43)c(=O)n2C1c1ccccc1 (centres undefined) | 339% [at 10 µM] | –
6 | COC(=O)C1(C(=O)OC)Cc2conc2[C@H]1c1ccccc1 | 22.4% | –
7 | CC(=O)OC1CC2C(C)(C)C(=O)CC[C@]2(C)C2CC[C@]3(C)C(=CC(=O)OC3c3ccoc3)[C@]12C (some centres undefined) | -56.5% | –
8 | CN(C)CCCN(Cc1ccccc1)C(=S)Nc1cccc(C(F)(F)F)c1 | 337% [at 10 µM] | –
9 | CCOc1ccc(S(=O)(=O)n2ccc(C)n2)c2ccccc12 | 238% [at 10 µM] | –
10 | O=C1OCCN1C(=O)[C@H]1[C@H](c2ccc([N+](=O)[O-])cc2)C(c2ccccc2)=NN1c1ccccc1 | -34.4% | –
11 | CC1CCCN(C(=O)COc2ccc(NC(=O)c3cccs3)cc2)C1 (centres undefined) | -83.7% | –
12 | COc1ccc(C(=O)CSc2cc(C)nc3nc(C)nn23)cc1OC | – | active: 12.6 µM
13 | CSc1ccc2c(c1)N(CCC1CCCCN1C)c1ccccc1S2 (centres undefined) | -265% | –
14 | CC[C@H]1C(c2cccc(C)c2)=NN(c2ccccc2)[C@@H]1CO | -45.2% | –
15 | Cc1cc(=O)oc2cc(OCC(=O)Nc3ccc(S(=O)(=O)N(C)C)cc3)ccc12 | 230% [at 10 µM] | –
16 | CCC(=O)OC1CCC2C3CCc4cc(O)ccc4C3CC[C@]12C (some centres undefined) | -274% | –
17 | CCCC[C@@H](C=O)NC(=O)[C@H](CC(C)C)NC(=O)[C@H](CC(C)C)NC(C)=O (Ac-Leu-Leu-[Nle]-aldehyde) | -211% and -91.4% | –
18 | O=c1[nH]cnc2c1ncn2C1OC(CO)C(O)C1O (centres undefined) | – | active: 8.91 µM
19 | O=C(Nc1ccccc1C(=O)O)c1ccc(NC(=O)c2ccc(Br)o2)cc1 | – | active: 2.24 µM
20 | COC(=O)C1(C(=O)OC)C[C@@H]2CON=C2[C@H]1c1ccccc1 | – | active: 20 µM
21 | O=C(COC(=O)CCc1nc2ccccc2n1-c1ccccc1)Nc1ccc(N2CCCCC2)cc1 | – | active: 3.16 µM
22 | NC(Cc1c[nH]c2ccccc12)C(=O)O (centres undefined) | -60.3% | –
23 | COC(=O)CSc1nc(C)c(C(C)=O)cc1C#N | 6.3% [at 10 µM] | –
24 | COc1ccc(-c2cccc([C@H]3[C@@H]4C=CC[C@@H](C)[C@@H]4C(=O)N3Cc3ccccc3)c2)cc1 | -118% | –

Five consecutive entries already listed, for reference:
Row | Structure (SMILES) | cytoprotection (ATP increase) | Potency
5 | COC(=O)C1=C(C)N=c2s/c(=C3\C(=O)Nc4ccccc43)c(=O)n2C1c1ccccc1 (centres undefined) | 339% [at 10 µM] | –
6 | COC(=O)C1(C(=O)OC)Cc2conc2[C@H]1c1ccccc1 | 22.4% | –
7 | CC(=O)OC1CC2C(C)(C)C(=O)CC[C@]2(C)C2CC[C@]3(C)C(=CC(=O)OC3c3ccoc3)[C@]12C (some centres undefined) | -56.5% | –
8 | CN(C)CCCN(Cc1ccccc1)C(=S)Nc1cccc(C(F)(F)F)c1 | 337% [at 10 µM] | –
9 | CCOc1ccc(S(=O)(=O)n2ccc(C)n2)c2ccccc12 | 238% [at 10 µM] | –

Continued.

Row | Structure (SMILES) | cytoprotection (ATP increase) | Potency
25 | COc1ccc(-c2cccc(-c3cc(=O)oc4ccc(C(C)(C)C)cc34)c2)cc1 | -47.7% | –
26 | O=c1ccn([C@@H]2O[C@H](COP(=O)(O)OP(=O)(O)OP(=O)(O)O)[C@@H](O)[C@H]2O)c(=O)[nH]1 | -46% | –
27 | Cc1ccc(NC(=O)Cc2nnc(SCC(=O)Nc3ccccc3)n2C)cc1 | 147% [at 10 µM] | –
28 | COC[C@H]1OC=C[C@@H](OC)[C@@H]1OC | 36.8% | –
29 | CCN(CC)c1ccc(/C=N/NC(=O)CNC(=O)c2ccccn2)cc1 | -50.7% | –
30 | CC/C(=C(\c1ccccc1)c1ccc(OCCN(C)C)cc1)c1ccccc1 | -183% | –
31 | COCCN1C(=O)N[C@@H](c2ccc(Br)cc2)C(C(=O)OC)=C1C | 36.1% | –
32 | C[C@@H]1CC=C[C@@H]2[C@H]1C(=O)N(Cc1ccccc1)[C@H]2c1ccccc1Br | -350% | –
33 | O=C(O)C1CC[C@@](C(=O)O)(c2ccccc2)c2ccccc21 (some centres undefined) | -21.9% | –
34 | COC(=O)Cc1sc(-c2ccccn2)nc1-c1ccccc1 | – | active: 1 µM
35 | O=C(O)[C@H]1CC=C[C@H]2CCN(Cc3ccc(Cl)c(Cl)c3)C(=O)[C@@H]12 | 32.4% | –
36 | C=C(C(C)=O)C(O)c1ccc(Cl)cc1 (centres undefined) | 32.3% | –
37 | COc1ccc(C(=O)c2ccccc2O)c(O)c1 | -6.12% | –
38 | O=C(Nc1ccc(O)c2c(=O)cc(-c3ccccc3Cl)oc12)c1ccccc1Cl | -26.9% | –
39 | CCOC(=O)Cn1c(-c2ccccn2)nc2ccccc21 | 52.2% | –
40 | CCC(C)NC(=S)N1CCN(Cc2ccccc2)CC1 (centres undefined) | 218% [at 10 µM] | –
41 | CN1CCOC(c2ccccc2)c2ccccc2C1 (centres undefined) | -32.3% | –
42 | CCCCC/C=C\C\C=C/C=C/C=C/[C@@H](SCC(NC(=O)CCC(N)C(=O)O)C(=O)NCC(=O)O)[C@@H](O)CCCC(=O)O (some centres undefined) | 55% | –
43 | Cc1cc(C)nc(-n2ncc3c2CCCC3=O)n1 | – | active: 25.1 µM
44 | COC(=O)[C@H](COC(C)(C)C)NC(=O)O[C@H]1C(=O)c2cc(OC)ccc2O[C@@H]1c1ccc(OC)c(Br)c1 | -46.6% | –
45 | CC1CCN(c2ccc(C(=O)NCc3ccc4c(c3)OCO4)cc2[N+](=O)[O-])CC1 | 307% [at 10 µM] | –
46 | NCCNS(=O)(=O)c1cccc2c(Cl)cccc12 | -34.8% | –
47 | COc1c2ccoc2cc2oc(=O)ccc12 | -52.6% | –
48 | c1ccc(Oc2nc(NC3CCCCC3)c3[nH]cnc3n2)cc1 | -82.8% | –

Row | Structure (SMILES) | cytoprotection (ATP increase) | Potency
49 | COc1cc(OC)c2c(-c3cccc(-c4sccc4C(C)=O)c3)cc(=O)oc2c1 | -275% | –
50 | CC(=O)N/C(=C/c1ccc2c(c1)OCO2)C(=O)NCC(=O)O | 119% [at 10 µM] | –
51 | Cc1ccc(NC(=S)NCCSc2ccc(Cl)cc2)c(C)c1 | – | active: 1.78 µM
52 | O=c1c2ccccc2nc2n1CCc1c-2[nH]c2ccccc12 | -132% | –
53 | COc1ccc(F)c(-c2nc(CN3CCC(c4ccccc4)CC3)c(C)o2)c1 | 264% [at 10 µM] | –
54 | COc1cc(/C=C/c2[nH]c(=O)[nH]c(=O)c2[N+](=O)[O-])ccc1OCCC(C)C | – | active: 12.6 µM
55 | C=C(C(=O)OCC)C(=O)c1ccccc1 | -44.9% | –
56 | O=C(NC(=S)Nc1cccc(S(=O)(=O)NC2=NCCC2)c1)c1cc(-c2ccco2)nc2ccccc12 | 255% [at 10 µM] | –
57 | CC(=O)Oc1ccc2c(c1)CCC1C2CC[C@]2(C)C(OC(C)=O)CCC12 (some centres undefined) | -159% | –
58 | C[C@H](CCC(=O)O)[C@H]1CC[C@H]2[C@@H]3CC[C@@H]4C[C@H](O)CC[C@]4(C)[C@H]3CC[C@]12C | -105% | –
59 | O=C1C2=CC[C@@H]3C(=O)N(c4ccc(F)cc4F)C(=O)[C@H]3[C@H]2[C@H](O)[C@H]2O[C@H]12 | – | active: 3.16 µM
60 | C[C@]12CCC3c4ccc(O)cc4CCC3C1CCC2OC(=O)CCC1CCCC1 (some centres undefined) | -41.5% | –
61 | CC(=O)NC(CCS(C)(=O)=O)C(=O)Nc1ccc2c(c1)OCO2 (centres undefined) | 306% [at 10 µM] | –
62 | Cc1ccc(S(=O)(=O)CC2CSc3nc4ccccc4n32)cc1 (centres undefined) | – | active: 3.98 µM
63 | CC(C)=CCOc1cc2oc(=O)ccc2cc1O | -97% | –
64 | Cc1cccc([C@H]2[C@@H]3C=CC(C)C[C@@H]3C(=O)N2Cc2ccccc2)c1 (some centres undefined) | -197% | –
65 | CCOC(=O)[C@H](CCc1ccccc1)N[C@@H](C)C(=O)N1[C@H](C(=O)O)C[C@H]2CCC[C@@H]21 | – | active: 3.16 µM
66 | CCN(C(=O)COC(=O)c1ccccc1NC(=O)c1ccco1)C1CCS(=O)(=O)C1 (centres undefined) | -32.2% | –
67 | Cc1cc(N/N=C/c2ccc(Cl)cc2)nc(NCc2ccccc2)n1 | 289% [at 1.9 µM] | –
68 | O=C(CSc1ncnc2c1nnn2Cc1ccc(F)cc1)NC1CCCC1 | – | active: 1.26 µM
69 | NCCCCCc1cnc[nH]1 | – | active: 0.794 µM
70 | CC(C)(C)CC(C)(C)c1ccc(OCCOCC[N+](C)(C)Cc2ccccc2)cc1 | -95.6% | –
71 | Cc1[nH]n(-c2ccccc2)c(=O)c1N=O | 464% [at 10 µM] | –
72 | COc1cccc(-c2cncnc2NCCc2c[nH]c3ccc(OC)cc23)c1 | – | active: 3.16 µM

Row | Structure (SMILES) | cytoprotection (ATP increase) | Potency
73 | C=C(C(C)=O)C(O)c1ccco1 (centres undefined) | -58% | –
74 | C[C@H]1C(c2cccc(Cl)c2)=NN(c2ccccc2)[C@@H]1CO | -121% | –
75 | CC1COC2=C1C(=O)C(=O)c1c2ccc2c1CCCC2(C)C (centres undefined) | -40.6% | –
76 | Cc1cccc(C)c1NC(=O)C1(NC(=O)Cn2cccc([N+](=O)[O-])c2=O)CCCCC1 | 165% [at 10 µM] | –
77 | O=C(Nc1ccccc1)N1CCC2(CC1)CCN(C(=O)c1cnccn1)CC2 | – | active: 3.55 µM
78 | COC(=O)[C@@]1(Cc2ccccc2-c2ccco2)C=C[C@H](C)[C@@H](c2ccccc2)N1C(=O)C(F)(F)F | – | active: 10 µM
79 | CC1=CCc2c(cc3oc(C)cc(=O)c3c2O)OC1 | -53.4% | –
80 | NNC(=O)c1ccncc1 | -35.1% | –
81 | CCCCNS(=O)(=O)c1ccc(S(=O)(=O)NCc2ccncc2)cc1 | 360% [at 1.9 µM] | –
82 | O=C(Nc1nccs1)C(c1ccccc1)N1CCCC1 (centres undefined) | – | active: 1.41 µM
83 | CCN(C(=O)CC(C)C)c1nnc(Cn2nnc3ccccc32)s1 | – | active: 0.891 µM
84 | CCOC(=O)c1sc(NC(=O)c2ccc(S(=O)(=O)N3CCCCCC3)cc2)nc1-c1ccccc1 | 209% [at 10 µM] | –
85 | FC(F)(F)c1cc(NC(=S)NC(c2ccccc2)c2ccccc2)cc(C(F)(F)F)c1 | -195% | –
86 | COC(=O)C1=C(C(=O)OC)[C@@H]2N(C)c3ccc(OC)cc3[C@@]23C[C@@H](C(=O)OC)N(C(C)=O)C3=N1 | 44.4% [at 10 µM] | –
87 | Cc1ccc(-n2nnc3c(=O)n(CC(=O)OCc4ccccc4)cnc32)cc1 | 352% [at 10 µM] | –
88 | O=C1C2C3C=CC(C3)C2C(=O)N1CCCO (centres undefined) | 309% [at 10 µM] | –
89 | CC(=O)c1ccc(NC(=O)Nc2ncn(Cc3cccc(C)c3)n2)cc1 | 302% [at 10 µM] | –
90 | O=C(c1ccccc1)c1ccccc1 | -163% | –
91 | CCOC(=O)C1=C(C)N(C)C(=S)NC1c1ccc(Cl)cc1 (centres undefined) | 220% [at 10 µM] | –
92 | COc1ccc(C(=O)C(CN2CCOCC2)c2ccccc2)cc1 (centres undefined) | – | active: 22.4 µM
93 | NCCCS(=O)(=O)O | -33% | –
94 | COc1ccc(/C=C2\CCCC(C(=O)C(F)(F)F)=C2O)cc1OC | 36.7% | –
